# Assay results reported in PubChem BioAssay AID1117319 (Southern Research Institute, 2015).
# Chains of the proteins cited; added tags and fusions are not shown. Lines headed by an entry give the natural chain unless they say otherwise; changes in a name come on top.
# UniProt P69720: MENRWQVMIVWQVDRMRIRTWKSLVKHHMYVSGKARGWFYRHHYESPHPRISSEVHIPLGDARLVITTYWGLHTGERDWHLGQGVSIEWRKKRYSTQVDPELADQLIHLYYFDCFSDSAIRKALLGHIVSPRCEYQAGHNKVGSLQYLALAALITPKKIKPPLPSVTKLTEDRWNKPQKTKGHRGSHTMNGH
# UniProt P69721: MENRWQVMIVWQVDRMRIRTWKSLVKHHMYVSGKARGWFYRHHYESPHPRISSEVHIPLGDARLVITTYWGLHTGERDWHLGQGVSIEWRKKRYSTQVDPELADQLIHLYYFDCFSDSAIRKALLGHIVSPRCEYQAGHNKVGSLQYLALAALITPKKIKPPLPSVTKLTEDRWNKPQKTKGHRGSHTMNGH
# UniProt P69722: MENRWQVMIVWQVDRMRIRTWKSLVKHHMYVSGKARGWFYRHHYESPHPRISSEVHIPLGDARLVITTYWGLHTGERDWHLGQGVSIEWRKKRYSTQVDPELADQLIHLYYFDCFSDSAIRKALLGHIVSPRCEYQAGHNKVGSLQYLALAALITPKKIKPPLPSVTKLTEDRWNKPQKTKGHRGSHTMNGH
# UniProt P69723: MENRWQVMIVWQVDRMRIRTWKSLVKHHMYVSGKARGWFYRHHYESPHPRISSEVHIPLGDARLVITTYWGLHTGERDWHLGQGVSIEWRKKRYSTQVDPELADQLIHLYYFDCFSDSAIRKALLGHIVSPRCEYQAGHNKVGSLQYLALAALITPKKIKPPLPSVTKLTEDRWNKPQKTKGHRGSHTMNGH
# UniProt Q9HC16: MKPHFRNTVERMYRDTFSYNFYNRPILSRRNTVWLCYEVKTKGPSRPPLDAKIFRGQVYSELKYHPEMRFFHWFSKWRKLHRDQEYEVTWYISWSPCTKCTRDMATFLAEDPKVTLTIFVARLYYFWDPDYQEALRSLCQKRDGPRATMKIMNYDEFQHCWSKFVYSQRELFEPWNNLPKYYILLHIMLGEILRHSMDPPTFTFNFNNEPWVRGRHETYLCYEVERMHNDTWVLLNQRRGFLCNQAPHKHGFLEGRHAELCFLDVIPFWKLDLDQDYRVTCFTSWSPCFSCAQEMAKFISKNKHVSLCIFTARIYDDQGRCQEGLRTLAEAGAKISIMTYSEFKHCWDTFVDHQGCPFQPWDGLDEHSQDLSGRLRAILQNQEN
# Screen size: about 260,000 compounds; about 1,500 (0.58%) were called active. The shares of active, inactive and inconclusive entries below differ from those in the screen.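 How the source made its calls: active means inhibition above a set limit at one or more doses, reproduced on every date tested; inconclusive means results disagree between test dates, or hit never tested in dose response; inactive means the rest.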
# Target: Virion infectivity factor (Human immunodeficiency virus type 1 group M subtype B (isolate BH10)) + Virion infectivity factor (Human immunodeficiency virus type 1 group M subtype B (isolate BRU/LAI)) + Virion infectivity factor (Human immunodeficiency virus type 1 group M subtype B (isolate PCV12)) + Virion infectivity factor (Human immunodeficiency virus type 1 group M subtype B (isolate HXB2)) + DNA dC->dU-editing enzyme APOBEC-3G (Homo sapiens) (UniProt P69720+P69721+P69722+P69723+Q9HC16)
# Test: inhibitors of Vif binding to APOBEC3G peptide, primary screen, biochemical, TR-FRET, GST-Vif 1-94, biotin-A3G peptide, dose response retest (AID 1117319);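 further: Vif residues 1-94 fused to GST binding biotinylated APOBEC3G peptide 110-148; 0% = full assay without inhibitor and 100% = GST in place of GST-Vif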
# Settings: hits give high values
row,SMILES,inhibition
1,CCOC(=O)c1[nH]c(C)c(C(=O)N(CC)CC)c1C,inactive: 4.43%
2,Cn1c(=NC(=O)c2ccc(S(=O)(=O)N3CCCc4ccccc43)cc2)sc2cc(S(C)(=O)=O)ccc21,inconclusive: 43%
3,O=C(c1ccccc1C(=O)N1CCN(c2ccccc2)CC1)N1CCN(c2ccccc2)CC1,inactive: 3.97%
4,O=S(=O)(N=C1C=CC(=NS(=O)(=O)c2ccccc2)c2ccccc21)c1ccccc1,inactive: 14.1%
5,CCN1C(=O)/C(=C/N(C)c2ccccc2)OC1=S,inactive: 0.98%
6,COc1ccc(Nc2nc(C)cc(C)c2C(N)=O)cc1OC,inconclusive: 53%
7,COc1ccc(CNC(=O)CNS(=O)(=O)c2ccc(Cl)cc2)cc1,inconclusive: 51.3%
8,COC(=O)[C@@]1(Cc2ccc(OC)cc2)[C@H]2c3cc(C(=O)N4CCCC4)n(CCc4c[nH]c5ccc(O)cc45)c3C[C@H]2CN1C(=O)c1ccccc1,inconclusive: 35.9%
9,Cc1ccc(CN2C(=O)C(C)(C)Oc3ccc(C(=O)N4CCCCC4)cc32)cc1,inconclusive: 35.6%
10,O=C(O)c1cc(S(=O)(=O)O)ccc1O,inactive: 9.92%
11,COc1ccc(C(=O)COC(=O)CNS(=O)(=O)c2ccc(C)cc2)cc1,inconclusive: 34.6%
12,CCN(CC)S(=O)(=O)c1ccc(Oc2cccc(C(C)=O)c2)nc1,inconclusive: 47.8%
13,Cc1ccc(S(=O)(=O)NNC(=O)Nc2cccc3ccccc23)cc1,inconclusive: 40.1%
14,COc1ccc(C(=O)NC(=S)Nc2cccc(NC(=O)c3ccco3)c2)cc1[N+](=O)[O-],inconclusive: 42.9%
15,O=C(c1cccc(S(=O)(=O)N2CCc3ccccc3C2)c1)N1CCN(c2ccc(O)cc2)CC1,inconclusive: 48.5%
16,COc1ccc(S(=O)(=O)N2CCCC2)cc1C(C)C,inconclusive: 48.5%
17,Cn1c(=O)c2c([nH]c(=O)n2C)n(C)c1=O,inconclusive: 51.9%
18,CCOC(=O)Cc1csc(NC(=O)CSc2nc3sc(C(=O)O)c(C)c3c(=O)[nH]2)n1,inconclusive: 35.9%
19,CC(=O)c1cc(-c2ccccc2)n(CCC(=O)NC2CCCCC2)c1C,inconclusive: 35.9%
20,CCOC(=O)C(=O)Nc1nnc(SCc2ccc(F)cc2)s1,inconclusive: 34.3%
21,CCC(Oc1ccccc1)C(=O)Nc1ccc(S(=O)(=O)N2CCOCC2)cc1 (stereo unspecified),inactive: 15.9%
22,Cn1c(CNC(=O)OC(C)(C)C)nnc1SCC(=O)N1CCOCC1,inconclusive: 53.3%

# Rewritten tab-delimited: part of the list above
row	SMILES	inhibition
5	CCN1C(=O)/C(=C/N(C)c2ccccc2)OC1=S	inactive: 0.98%
10	O=C(O)c1cc(S(=O)(=O)O)ccc1O	inactive: 9.92%
16	COc1ccc(S(=O)(=O)N2CCCC2)cc1C(C)C	inconclusive: 48.5%

# Quoted from the listing for reference:
row,SMILES,inhibition
6,COc1ccc(Nc2nc(C)cc(C)c2C(N)=O)cc1OC,inconclusive: 53%
7,COc1ccc(CNC(=O)CNS(=O)(=O)c2ccc(Cl)cc2)cc1,inconclusive: 51.3%

# (more compounds)

row,SMILES,inhibition
1,Cc1ccc(CN(Cc2ccccc2)C(=S)Nc2ccccc2C)o1,inactive: 13.2%
2,COc1cc(C(=O)NNC(=S)NC(=O)c2ccc(F)cc2)cc(OC)c1OC,inactive: 13.5%
3,Cc1ccc(NCc2nnc(SCC(=O)Nc3ncc(C)s3)n2CC2CCCO2)c(C)c1 (stereo unspecified),inactive: -1.98%
4,O=C(Nc1nc(-c2ccco2)c(-c2ccco2)s1)C1CC(=O)N(c2ccc3c(c2)OCCO3)C1 (stereo unspecified),inconclusive: 50.2%
5,COc1cccc(NC(=O)N(CCCN2CCOCC2)C(C)c2cc3cccc(OC)c3o2)c1 (stereo unspecified),inconclusive: 3.65%
6,Cc1cc(C(F)(F)F)n2nc(-c3cnn(C)c3C(F)(F)F)c(Cl)c2n1,inconclusive: 42.2%
7,O=C(NC(=S)N1CCN(C2CCCCC2)CC1)c1ccccc1,inconclusive: 39.7%
8,COC(=O)CC1C(=O)NCCN1C(=O)CSc1nc2ccc([N+](=O)[O-])cc2s1 (stereo unspecified),inconclusive: 36.6%
9,Cc1cc(C)cc(Oc2ccc(N)cc2)c1,inconclusive: 43.6%
10,CC1CCN(C(=O)CSc2nc3ccccc3s2)CC1,inconclusive: 48.2%
11,Cc1cc(/C=C2/C(=O)NN(c3ccccc3)C2=O)c(C)n1-c1ccc(O)cc1,inactive: -5.99%
12,CCOc1ccc2nc(N3CCC(C(=O)NCCCN4CCOCC4)CC3)sc2c1,inconclusive: 33.3%
13,CSc1ccccc1C(=O)C1CCCN(C(=O)CCN2CCCO2)C1 (stereo unspecified),inconclusive: 52.4%
14,CCN(CC)c1ccc(/C=N/NS(=O)(=O)c2cccc([N+](=O)[O-])c2)cc1,inconclusive: 33.5%
15,O=C(CN1CCCCCC1)N/N=C/c1cccs1,inconclusive: 59.9%
16,O=C1CN(C(=O)CNC(=O)c2ccc(Cl)cc2Cl)CCN1,inconclusive: 48.4%
17,CN1CCN(c2ncc(CN3C(=O)c4ccccc4C3=O)s2)CC1,inactive: 1.36%
18,CN(C)/N=C/C=C1\CC/C(=C\c2ccc(Br)cc2)C1=O,inconclusive: 40.6%
19,CC(/C=N/NC(=O)c1cc(-c2ccc(C)o2)[nH]n1)=C\c1ccccc1,inconclusive: 37.6%
20,O=C(Cc1ccccc1)NCCSCc1ccco1,inconclusive: 38.8%
21,CCCn1nnc(NC(=O)c2cccnc2Cl)n1,inconclusive: 35.3%
22,O=C(NCc1cccnc1)/C(=C\c1ccc(-c2ccc(Cl)c(Cl)c2)o1)S(=O)(=O)c1ccccc1,inconclusive: 37.1%

row,SMILES,inhibition
1,O=C(CCN1C(=O)/C(=C/c2ccco2)SC1=S)Nc1ccc(O)cc1C(=O)O,inactive: 20.3%
2,COc1ccc(CCNc2ncnc3[nH]ncc23)cc1OC,inconclusive: 32.9%
3,CCOC(=O)CC1COCCN1Cc1cn(C)nc1-c1ccccc1F (stereo unspecified),inconclusive: 33.4%
4,Cc1nnc(NC(=O)CSc2nnc(NC(=O)C(C)(C)C)s2)s1,inactive: 22.2%
5,O=c1[nH]c2ccc(N/C(=N/S(=O)(=O)c3ccccc3)c3ccccc3)cc2[nH]1,inconclusive: 52.5%
6,Cc1ccc(NC(=O)Nc2cccn(Cc3c(F)cccc3Cl)c2=O)cc1,inconclusive: 46.2%
7,c1cncc(CSc2nnc(-c3cccnc3)n2Cc2ccco2)c1,inconclusive: 57.2%
8,CC(C)C(=O)Nc1ccc(NC(=O)c2ccco2)cn1,inconclusive: 49.9%
9,CC(C)(C)c1ccc(/C([O-])=C(/C(=S)NCc2ccco2)[n+]2ccccc2)cc1,inconclusive: 54.5%
10,CN1CCN(Cc2nc(Cc3ccccc3)no2)CC1c1ccccc1 (stereo unspecified),inconclusive: 48.7%
11,COc1ccc(C(=O)/C=C/Nc2ccc(S(=O)(=O)Nc3onc(C)c3C)cc2)cc1,inconclusive: 45.6%
12,COc1cccc2c(=O)n(CC(=O)NC3CCCC3)ccc12,inconclusive: 53.1%
13,O=c1c2cc(NC(=S)N3CCCC3)ccc2nc2n1CCCCC2,inconclusive: 40.1%
14,Cc1cccc(N(Cc2ccccc2F)S(C)(=O)=O)c1,inactive: 22.4%
15,O=c1oc2ccccc2c(NCc2cccc(F)c2)c1[N+](=O)[O-],inconclusive: 28.6%
16,Cc1nnc(-c2ccc(N3CCCCCC3)c([N+](=O)[O-])c2)o1,inconclusive: 40.2%
17,C=CCn1c(O)c(N=Nc2ccccc2)c2ccccc21,inconclusive: 54.1%
18,Cc1ccc2nc(/C(C#N)=C\c3ccc([N+](=O)[O-])o3)[nH]c2c1,inconclusive: 47.2%
19,CC(=O)Nc1ccc(Nc2ccc(N3C(=O)CCCC3=O)cc2[N+](=O)[O-])cc1,inconclusive: 46.9%
20,C=CCCC(=O)N1CCC(Oc2cccc(C(=O)NCc3ccccn3)c2)CC1,inconclusive: 41%
21,O=[N+]([O-])c1ccc(N2CCN(c3ccc(O)cc3)CC2)c(Cl)c1,inconclusive: 44.8%
22,O=C(Nc1cc(Cl)cc(Cl)c1)c1cnn2cccnc12,inconclusive: 36.9%

# Grouped by structure, the compounds so far with a thiophene ring, fused or not.
row,SMILES,inhibition
18,CCOC(=O)Cc1csc(NC(=O)CSc2nc3sc(C(=O)O)c(C)c3c(=O)[nH]2)n1,inconclusive: 35.9%
15,O=C(CN1CCCCCC1)N/N=C/c1cccs1,inconclusive: 59.9%

# (listing goes on)

row,SMILES,inhibition
1,Oc1c(C(c2ccc(Cl)cc2)N2CCCC2)cc(Cl)c2cccnc12 (stereo unspecified),inconclusive: 58.2%
2,CCn1c(SCC(=O)N2CCN(c3ccccc3)CC2)nnc1-c1ccoc1C,inactive: 7.37%
3,CC1C/C(=N/Nc2nc3ccccc3[nH]2)CC(C)(C)C1 (stereo unspecified),inconclusive: 51.4%
4,O=C(Nc1ccc2c(c1)OCCO2)C1CCN(C(=O)c2ccc(Br)cc2)CC1,inconclusive: 51.2%
5,CCOC(=O)c1cnc2c(cnn2C)c1NCCC(O)C(F)(F)F (stereo unspecified),inconclusive: 42.2%
6,O=C(NCCCNc1ccc([N+](=O)[O-])cc1Cl)c1ccccc1F,inconclusive: 36.2%
7,CCOC(=O)C(C(C)=O)c1c(Br)c(O)c(O)c2c(C(=O)c3ccc(C)cc3)coc12 (stereo unspecified),inconclusive: 52.3%
8,Cc1c(Nc2cc(Cl)c3nonc3c2[N+](=O)[O-])c(=O)n(-c2ccccc2)n1C,inconclusive: 45.8%
9,Cc1csc(NC(=O)CSc2nnc(-c3ccoc3C)o2)n1,inconclusive: 42.9%
10,COc1ccc2c(c1)C(=O)N(c1ccccc1OC)C(=O)C2(C)C,inconclusive: 50.2%
11,Cc1nn(Cc2cccc(F)c2)c(C)c1NC(=O)c1c([N+](=O)[O-])c(C)nn1C,inconclusive: 45.2%
12,O=C(COC(=O)CCc1nc2ccccc2s1)Nc1ccc(S(=O)(=O)N2CCOCC2)cc1,inconclusive: 38.4%
13,O=c1oc2ccccc2cc1-c1nc(-c2cccs2)cs1,inconclusive: 33.7%
14,Cn1cnc([N+](=O)[O-])c1C(=O)Nc1cccc([N+](=O)[O-])c1,inactive: -0.16%
15,Cn1c(SCC(=O)Nc2cccc(O)c2)nnc1-c1ccc(S(=O)(=O)N2CCOCC2)cc1,inconclusive: 56%
16,COc1cc(OC)c(N(C)S(=O)(=O)c2cccc(C(=O)NC(C)C3CC4CCC3C4)c2)cc1Cl (stereo unspecified),inconclusive: 33.2%
17,CCCNC(=O)c1ccccc1C(=O)NCCC,inactive: -3.84%
18,CC1CCCCN1S(=O)(=O)c1ccc(S(=O)(=O)N(CC(=O)Nc2ccccc2)Cc2cccs2)cc1 (stereo unspecified),inconclusive: 35.1%
19,CCOc1ccc(N2C(=O)CN=C2Nc2ccccc2F)cc1,inconclusive: 36.3%
20,CCOC(=O)c1c2c3c(c(Cl)ccc3[nH]c1=O)C(=O)c1ccccc1-2,inconclusive: 52.4%
